In PubChem BioAssay AID1487 (National Center for Advancing Translational Sciences (NCATS), 2009) one finds AC50 data, which are given here for 55 compounds.

The structures appear in SMILES notation. The list shows a part of the results. Further columns of the screen follow, without active or inactive calls. Compounds called inactive in the main read-out are mostly missing here. The note in brackets gives the kind of curve behind each potency; many fits are weak.

This experiment is described as follows: qHTS Assay for Modulators of Lamin A Splicing. As to conditions: HeLa LMNA splicing GFP/RFP minigene ratio, 48 h. Put shortly: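 S3 HeLa cells stably expressing lamin A-EGFP splicing minigene plus DsRed2, 600 cells/well, 48 h compound exposure at 37C. Laser-scanning cytometry; analysed as GFP (500-530 nm)/RFP (575-640 nm) total intensity ratio; 0.5% DMSO vehicle.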

Where [1] appears, read: measured here: RFP viability control channel.
Setting [2] is: measured here: GFP splicing reporter channel.

What is called AC50 is the midpoint of the concentration-response curve, whichever way the signal moves. As for `CCN(CC)C(=O)COc1ccc(-c2nnc(N3CCCCC3)c3ccccc23)cc1`, the AC50 under setting [1] is 22.4 µM [rising, single point]. As to `Cc1ccc(Nc2nnc(SCC(=O)Nc3cccnc3Cl)s2)cc1C`, the AC50 under setting [1] was 20 µM [rising, single point]. As for `O=C(Nc1ccc2nc(SCc3ccccc3)sc2c1)c1cccc(F)c1`, the AC50 under setting [2] was 6.31 µM [rising, single point]. For the compound `Fc1ccc(CNC(=S)Nc2cccc(Cl)c2)cc1`, the AC50 is 11.2 µM [rising, partial curve, poor fit] under setting [2] and 17.8 µM [rising, single point] under setting [1]. For `CCNC(=O)C12CCC(C)(c3nc4cc(C)c(C)cc4nc31)C2(C)C` (configuration not stated), the AC50 under setting [1] is 3.55 µM [falling, full curve, poor fit]. With `CCOCCCNC(=S)NCCCNc1nc2c(C)cc(C)cc2cc1C#N`, the AC50 was 0.0708 µM [falling, full curve, poor fit] under setting [2] and 0.0794 µM [falling, full curve] under setting [1]. Turning to `CCn1c(-c2csc(C(C)C)c2)n[nH]c1=S`, the AC50 runs as follows: under setting [2], 0.00501 µM [falling, full curve, poor fit]; under setting [1], 0.00447 µM [falling, full curve, poor fit]. As for `CCOc1ccc2ncc(S(=O)(=O)c3ccc(C)cc3)c(N3CCC4(CC3)OCCO4)c2c1`, under setting [1], the AC50 was 11.2 µM [rising, single point]. For `CN(C)/C=N/c1nc2nccc(-c3ccc(Cl)cc3)n2n1`, the AC50 under setting [2] was 15.8 µM [falling, single point]. As to `COc1ccc2c(c1)c(CC(=O)O)c(C)n2Cc1ccc(Cl)cc1`, the AC50 under setting [1] is 0.00447 µM [falling, full curve, poor fit].

Regarding `COc1ccc(OC)c(/C=C/C(=O)OCC(=O)c2c(N)n(C)c(=O)n(C)c2=O)c1`, the AC50 under setting [1] is 2 µM [rising, full curve, poor fit]. Same read-out and setting: then `COC(=O)[C@@H](N)Cc1ccc(O)c(O)c1`, with 7.94 µM [falling, partial curve, poor fit]. For `CCc1ccc(C(=O)NNc2ccc(Cl)cc2)cc1`, under setting [2], the AC50 was 4.47 µM [rising, full curve, poor fit]. `CC1=C(C(=O)Nc2ccccc2C)C(c2ccc(C)o2)NC(=S)N1` (configuration not stated): the AC50 under setting [2] was 10 µM [falling, partial curve, poor fit]. In the case of `O=C(CCc1ccccc1)NNc1ccc(F)cc1`, the half-maximal activity concentration (AC50) under setting [2] was 0.891 µM [rising, partial curve]. On to `CCOC(=O)N1CCC(NC(=O)c2cc(C(=O)Nc3ccc(OC)c(OC)c3)ccc2CO)CC1`, for which the AC50 under setting [2] was 35.5 µM [rising, single point] and the AC50 under setting [1] is 14.1 µM [rising, single point]. Turning to `CCOC(=O)C1=C(C)NC(C)=C(C(=O)OC)[C@@H]1c1cccc([N+](=O)[O-])c1`, the concentration at half-maximal activity (AC50) runs as follows: under setting [2], 3.16 µM [falling, single point]; under setting [1], 3.16 µM [falling, single point]. In the case of `CCN(CC)S(=O)(=O)c1cc(NS(=O)(=O)c2cccc(Cl)c2)ccc1C`, the AC50 under setting [1] is 22.4 µM [rising, single point]. On to `Cc1ccc(OCC(=O)N/N=C/c2cn[nH]c2-c2ccc(Cl)c(Cl)c2)cc1`, for which the concentration at half-maximal activity (AC50) was 20 µM [rising, partial curve, poor fit] under setting [2] and 11.2 µM [rising, partial curve] under setting [1]. For the compound `COCCNC(=O)C(=O)NCC(c1cccnc1)N1CCN(c2ccccc2OC)CC1` (configuration not stated), the AC50 under setting [2] is 28.2 µM [falling, single point] and the AC50 under setting [1] is 35.5 µM [falling, single point]. Consider `COc1cc(C(=O)NCC(c2cccnc2)N2CCc3ccccc3C2)cc(OC)c1OC` (configuration not stated), for which, under setting [1], the AC50 is 0.00794 µM [falling, full curve, poor fit]. Regarding `COc1ccc(S(=O)(=O)n2cnc3cc(C)c(C)cc32)cc1C`, the AC50 under setting [1] was 7.08 µM [rising, partial curve]. As to `S=c1[nH]nc(-c2ccc(Br)cc2)n1Cc1ccccc1`, the AC50 under setting [2] was 14.1 µM [falling, single point] and the concentration at half-maximal activity (AC50) under setting [1] was 0.00794 µM [falling, full curve, poor fit]. In the case of `CCC(CC)C(=O)OCC(=O)Nc1cc(OC)c([N+](=O)[O-])cc1C`, the concentration at half-maximal activity (AC50) under setting [1] was 17.8 µM [rising, partial curve, poor fit]. In the case of `O=c1oc2ccccc2nc1/C=C(O)/C=C\c1ccccc1`, under setting [1], the AC50 is 31.6 µM [rising, single point].

Turning to `c1ccc2cc(OCc3nc4ccccc4[nH]3)ccc2c1`, the AC50 under setting [1] is 31.6 µM [rising, single point]. Turning to `Cc1occc1-c1nnc(SCC(=O)Nc2ccccc2N2CCCCC2)n1C`, under setting [1], the AC50 was 35.5 µM [rising, single point].

In the case of `CNC(=O)C1CCN(Cc2cc3ccccc3n2Cc2ccccc2C)CC1`, the AC50 reads like this: under setting [2], 35.5 µM [falling, single point]; under setting [1], 0.0562 µM [falling, full curve, poor fit]. `Cc1cc(C(F)(F)F)nn2cnnc12`: the AC50 reads like this: under setting [2], 5.62 µM [falling, single point]; under setting [1], 2.51 µM [falling, partial curve]. Regarding `CCOCCCNC(=O)CCC(=O)NNc1nc2ccccc2c2nc(-c3ccccc3)nn12`, the AC50 under setting [1] is 1.58 µM [rising, partial curve, poor fit]. With `COc1ccccc1C(=O)OCCCN=C1NS(=O)(=O)c2ccccc21`, the AC50 under setting [1] is 0.0891 µM [falling, full curve]. For `CC(C)N(C(=O)COC(=O)[C@H](C)NC(=O)c1ccco1)c1ccccc1`, under setting [2], the half-maximal activity concentration (AC50) is 0.0447 µM [falling, full curve, poor fit]. For the compound `S=C(NC1CCCCC1)NN(c1ccccc1)c1ccccc1`, the AC50 under setting [2] is 35.5 µM [rising, single point] and the AC50 under setting [1] was 25.1 µM [rising, partial curve].

As to `COc1ccc(C2=[N+](C)CCn3cccc32)c(OC)c1`, the half-maximal activity concentration (AC50) under setting [2] is 7.94 µM [rising, partial curve] and the concentration at half-maximal activity (AC50) under setting [1] is 14.1 µM [rising, partial curve].

Consider `Cc1cc(Cl)c(S(=O)(=O)N2CCN(c3ccc(F)cc3)CC2)cc1OCC(=O)NC1CCCCC1`, for which the AC50 reads like this: under setting [2], 0.562 µM [rising, full curve, poor fit]; under setting [1], 0.631 µM [rising, full curve]. On to `Cc1cc(C)nc(NC2=NC3CCCCC3N2)n1` (configuration not stated), for which the AC50 by setting is: under setting [2], 31.6 µM [rising, single point]; under setting [1], 17.8 µM [rising, single point]. Turning to `Cc1ccc(N2CCN(CCc3nc4cc(NC(=O)c5ccco5)ccc4n3C)CC2)cc1`, the AC50 under setting [2] is 5.62 µM [falling, single point].

As for `CCOC(=O)c1cnc2c(C)cccc2c1NCCc1ccc(OC)c(OC)c1`, the concentration at half-maximal activity (AC50) under setting [1] is 14.1 µM [rising, single point].

`C=CCNC(=O)/C(C#N)=C/c1c(C)nn(-c2ccc(Cl)cc2)c1Cl`: the AC50 under setting [1] was 12.6 µM [rising, partial curve, poor fit]. Regarding `Cc1ccc2c(c1)c1c(n2CC(O)Cn2c(C)nc3ccccc32)CCCC1` (configuration not stated), the AC50 by setting is: under setting [2], 14.1 µM [falling, single point]; under setting [1], 12.6 µM [falling, partial curve]. For `Cc1ccc(NC(=O)Cc2ccc([N+](=O)[O-])cc2)c(Br)c1`, under setting [1], the AC50 was 5.01 µM [falling, full curve, poor fit]. Consider `N#Cc1nc(COc2ccccc2)oc1N1CCC(Cc2ccccc2)CC1`, for which, under setting [1], the AC50 is 0.708 µM [rising, full curve].

For the compound `COc1cccc(CNC(=O)CSCc2cnn(-c3ccccc3)c2-n2cccc2)c1`, the AC50 under setting [1] was 14.1 µM [rising, single point]. As to `O=C(C[n+]1cc(-c2ccccc2)n2c1CCC2)N1c2ccccc2Sc2ccccc21`, the AC50 under setting [2] was 11.2 µM [rising, single point] and the AC50 under setting [1] was 15.8 µM [rising, single point]. With `O=C(/C=C/c1ccco1)NC(=S)Nc1cccc(-c2nc3ccccc3o2)c1`, the AC50 reads like this: under setting [2], 5.62 µM [falling, full curve]; under setting [1], 7.08 µM [falling, partial curve]. Consider `CCOc1ccc(N=C(NN)c2ccc3ccccc3n2)cc1`, for which the AC50 runs as follows: under setting [2], 3.55 µM [rising, partial curve]; under setting [1], 12.6 µM [rising, partial curve].

`Fc1ccccc1Sc1ccccc1CNC1=NCCN1`: the AC50 is 17.8 µM [rising, partial curve, poor fit] under setting [2] and 14.1 µM [rising, partial curve] under setting [1].

For the compound `COc1ccccc1N1CCN(C(=O)c2cnn(-c3ccc(C)c(C)c3)c2C2CCN(C(=O)OC(C)(C)C)CC2)CC1`, the AC50 under setting [1] is 31.6 µM [rising, single point]. With `Cn1c(=O)n(Cc2ccc(F)cc2)c(=O)c2c1nc1n2CCCN1Cc1ccccc1`, the AC50 under setting [1] was 11.2 µM [rising, partial curve, poor fit]. With `C/C(=N\NC(=S)NCCc1ccccc1)c1cccs1`, the AC50 under setting [1] was 11.2 µM [rising, partial curve]. `C=C(C)c1cccc(C(C)(C)NC(=O)Nc2ccc(C)cn2)c1`: under setting [1], the AC50 was 35.5 µM [rising, single point]. In the case of `CCOc1ccc(S(=O)(=O)N(CC(=O)NC2CCCCC2C)Cc2ccco2)cc1` (configuration not stated), the AC50 reads like this: under setting [2], 8.91 µM [rising, partial curve]; under setting [1], 15.8 µM [rising, single point]. In the case of `CCOC(=O)c1c(C)oc2ncnc(NCCCN3CCN(c4cc(C)ccc4C)CC3)c12`, the concentration at half-maximal activity (AC50) is, setting by setting: under setting [2], 15.8 µM [falling, single point]; under setting [1], 20 µM [falling, single point].

As for `CCCOc1ccc(C(=O)N(Cc2cccs2)c2ccc(C)cc2)cc1`, the AC50 is 2.51 µM [falling, partial curve] under setting [2] and 4.47 µM [falling, partial curve] under setting [1].

On to `COc1cccc(NS(=O)(=O)c2ccc(Br)s2)c1`, for which the half-maximal activity concentration (AC50) under setting [1] was 14.1 µM [rising, single point].
